Experimental data published in the supplement of paper PMC8728848.
The other results are listed elsewhere or left out.

What was measured:
Experiment in all cases: glycan array binding signal (z-score within array); higher = stronger binding
Settings in all cases: glycan notation: IUPAC condensed, linker removed
[1] = target: GalNAc(b1-4)GlcNAc(b1-2)Man
Procedure, shortened: (§1)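 From the Consortium for Functional Glycomics database, 3228 arrays were curated, keeping only those whose protein sequence was available. Binding is given as a within-array Z-score averaged across arrays sharing a protein sequence and across linkers. Negative Z-scores can be read as non-binding.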

[2] = target: GalNAc(b1-4)GlcNAc(b1-2)Man(a1-3)[GalNAc(b1-4)GlcNAc(b1-2)Man(a1-6)]Man(b1-4)GlcNAc(b1-4)GlcNAc
Procedure, shortened: as §1

[3] = target: GalNAc(b1-4)GlcNAc(b1-3)GalNAc(b1-4)GlcNAc
Procedure, shortened: as §1

GalNAc(b1-4)GlcNAc6S = target: GalNAc(b1-4)GlcNAc6S
Procedure, shortened: as §1

GalNAc(b1-6)GalNAc = target: GalNAc(b1-6)GalNAc
Procedure, shortened: as §1

GalNAc3S(b1-4)GlcNAc = target: GalNAc3S(b1-4)GlcNAc
Procedure, shortened: as §1

GalNAc3S(b1-4)GlcNAc3S = target: GalNAc3S(b1-4)GlcNAc3S
Procedure, shortened: as §1

[4] = target: GalNAc3S(b1-4)[Fuc(a1-3)]GlcNAc
Procedure, shortened: as §1

GalNAc4S6S(b1-4)GlcNAc = target: GalNAc4S6S(b1-4)GlcNAc
Procedure, shortened: as §1

GalNAc6S(b1-4)GlcNAc = target: GalNAc6S(b1-4)GlcNAc
Procedure, shortened: as §1

Glc(a1-4)Glc = target: Glc(a1-4)Glc
Procedure, shortened: as §1

[5] = target: Glc(a1-4)Glc(a1-4)Glc(a1-4)Glc
Procedure, shortened: as §1

Glc(a1-6)Glc(a1-6)Glc = target: Glc(a1-6)Glc(a1-6)Glc
Procedure, shortened: as §1

[6] = target: Glc(a1-6)Glc(a1-6)Glc(a1-6)Glc
Procedure, shortened: as §1

Glc(b1-4)Glc = target: Glc(b1-4)Glc
Procedure, shortened: as §1

Glc(b1-6)Glc = target: Glc(b1-6)Glc
Procedure, shortened: as §1

GlcA(b1-3)Gal = target: GlcA(b1-3)Gal
Procedure, shortened: as §1

GlcA(b1-3)GlcNAc = target: GlcA(b1-3)GlcNAc
Procedure, shortened: as §1

GlcA(b1-6)Gal = target: GlcA(b1-6)Gal
Procedure, shortened: as §1

[7] = target: GlcA3S(b1-3)Gal(b1-4)GlcNAc(b1-2)Man
Procedure, shortened: as §1

[8] = target: GlcA3S(b1-3)Gal(b1-4)GlcNAc(b1-3)Gal(b1-4)Glc
Procedure, shortened: as §1

[9] = target: GlcNAc(a1-3)Gal(b1-4)GlcNAc
Procedure, shortened: as §1

[10] = target: GlcNAc(a1-4)Gal(b1-3)GlcNAc
Procedure, shortened: as §1

[11] = target: GlcNAc(a1-4)Gal(b1-4)GalNAc
Procedure, shortened: as §1

[12] = target: GlcNAc(a1-4)Gal(b1-4)GlcNAc
Procedure, shortened: as §1

[13] = target: GlcNAc(a1-4)Gal(b1-4)GlcNAc(b1-3)Gal(b1-4)Glc
Procedure, shortened: as §1

[14] = target: GlcNAc(a1-4)Gal(b1-4)GlcNAc(b1-3)Gal(b1-4)GlcNAc
Procedure, shortened: as §1

[15] = target: GlcNAc(a1-4)Gal(b1-4)GlcNAc(b1-3)Gal(b1-4)GlcNAc(b1-3)Gal(b1-4)GlcNAc
Procedure, shortened: as §1

[16] = target: GlcNAc(a1-4)Gal(b1-4)GlcNAc(b1-3)Gal(b1-4)[Fuc(a1-3)]GlcNAc(b1-3)Gal(b1-4)[Fuc(a1-3)]GlcNAc
Procedure, shortened: as §1

[17] = target: GlcNAc(a1-6)Gal(b1-4)GlcNAc
Procedure, shortened: as §1

[18] = target: GlcNAc(b1-2)Gal(b1-3)GalNAc
Procedure, shortened: as §1

[19] = target: GlcNAc(b1-2)Man(a1-3)[GlcNAc(b1-2)Man(a1-6)]Man(b1-4)GlcNAc(b1-4)GlcNAc
Procedure, shortened: as §1

[20] = target: GlcNAc(b1-2)Man(a1-3)[GlcNAc(b1-2)Man(a1-6)]Man(b1-4)GlcNAc(b1-4)[Fuc(a1-6)]GlcNAc
Procedure, shortened: as §1

[21] = target: GlcNAc(b1-2)Man(a1-3)[GlcNAc(b1-4)][GlcNAc(b1-2)Man(a1-6)]Man(b1-4)GlcNAc(b1-4)GlcNAc
Procedure, shortened: as §1

[22] = target: GlcNAc(b1-2)Man(a1-3)[GlcNAc(b1-4)][GlcNAc(b1-2)Man(a1-6)]Man(b1-4)GlcNAc(b1-4)[Fuc(a1-6)]GlcNAc
Procedure, shortened: as §1

[23] = target: GlcNAc(b1-2)[GlcNAc(b1-4)]Man(a1-3)[GlcNAc(b1-2)Man(a1-6)]Man(b1-4)GlcNAc(b1-4)GlcNAc
Procedure, shortened: as §1

[24] = target: GlcNAc(b1-2)[GlcNAc(b1-4)]Man(a1-3)[GlcNAc(b1-4)][GlcNAc(b1-2)Man(a1-6)]Man(b1-4)GlcNAc(b1-4)GlcNAc
Procedure, shortened: as §1

B1: HopZSSI-T (Helicobacter pylori), B5Z6D0 (protein)
chain: MGSSHHHHHHSSGLVPRGSHMENLYFQGEDNGFFISAGYQIGEAAQMVKNTGELKKLSDTYENLSNLLTNFNNLNQAVTNASSPSEINAAIDNLKANTQGLTGEKTNSPAYQAVYLALNAAVGLWNVIAYNVQCGPGNSSQQSVTFEGQPGHNSSSINCNLTGYNNGVSGPLSIDNFKQLNQAYQVLQQALKQGVPVLNNTNQKIEVKVTTQTNGQSSKETTTTTTTNDAQTLLQEASKMIDVLTTNCPWVNHNPGQNGGAPWGLIRQECVSGFATEFSAVTSMIKNAQEIVTQAQSLNANQNNQNAPQDFNPYTSADRAFAQNMLNHAQAQAKILELADQMKKDLNTIPSQFITNYLAACRIDGTTPSQGVTNNTWGAGCAYVEETITALNNSLAHFGTQAEQIKQSELLARTILDFRGSLSTLNSTYNSITTTASNTPNSPFLKNLISQSTNPNNPGGLQAVYQVNQSAYSQLLSATQELGHNPFRRIGLISSQT
- glycan array binding signal (z-score) [1]: -0.192
- glycan array binding signal (z-score) [2]: 0.375
- glycan array binding signal (z-score) [3]: 0.498
- glycan array binding signal (z-score) (GalNAc(b1-4)GlcNAc6S): -0.865
- glycan array binding signal (z-score) (GalNAc(b1-6)GalNAc): -0.469
- glycan array binding signal (z-score) (GalNAc3S(b1-4)GlcNAc): 0.208
- glycan array binding signal (z-score) (GalNAc3S(b1-4)GlcNAc3S): -0.418
- glycan array binding signal (z-score) [4]: -0.683
- glycan array binding signal (z-score) (GalNAc4S6S(b1-4)GlcNAc): 3.87
- glycan array binding signal (z-score) (GalNAc6S(b1-4)GlcNAc): 9.12
- glycan array binding signal (z-score) (Glc(a1-4)Glc): 0.409
- glycan array binding signal (z-score) [5]: -0.263
- glycan array binding signal (z-score) (Glc(a1-6)Glc(a1-6)Glc): -0.245
- glycan array binding signal (z-score) [6]: -0.288
- glycan array binding signal (z-score) (Glc(b1-4)Glc): -0.748
- glycan array binding signal (z-score) (Glc(b1-6)Glc): 0.202
- glycan array binding signal (z-score) (GlcA(b1-3)Gal): -0.416
- glycan array binding signal (z-score) (GlcA(b1-3)GlcNAc): -0.669
- glycan array binding signal (z-score) (GlcA(b1-6)Gal): -0.427
- glycan array binding signal (z-score) [7]: -0.303
- glycan array binding signal (z-score) [8]: -0.717
- glycan array binding signal (z-score) [9]: -0.156
- glycan array binding signal (z-score) [10]: -0.245
- glycan array binding signal (z-score) [11]: -0.575
- glycan array binding signal (z-score) [12]: 0.109
- glycan array binding signal (z-score) [13]: -0.199
- glycan array binding signal (z-score) [14]: -0.849
- glycan array binding signal (z-score) [15]: -0.165
- glycan array binding signal (z-score) [16]: 0.594
- glycan array binding signal (z-score) [17]: -0.463
- glycan array binding signal (z-score) [18]: -0.807
- glycan array binding signal (z-score) [19]: -0.072
- glycan array binding signal (z-score) [20]: 0.081
- glycan array binding signal (z-score) [21]: -0.234
- glycan array binding signal (z-score) [22]: -0.969
- glycan array binding signal (z-score) [23]: -0.762
- glycan array binding signal (z-score) [24]: -0.116
